Measured values as given in the supplement of paper PMC8728848.
The other results are listed elsewhere or left out.

Experiments:
Assay in all cases: glycan array binding signal (z-score within array); higher = stronger binding
Conditions in all cases: glycan notation: IUPAC condensed, linker removed
[1] = target: Fuc(a1-3)[Gal3S(b1-4)]GlcNAc6S
How it was run: (§1)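 Glycan array data came from 3228 arrays in the Consortium for Functional Glycomics database, and only arrays with an available protein sequence were kept. Glycan names were put into IUPAC-condensed notation, and columns mapping to the same glycan were averaged. The binding signal is a within-array Z-score, averaged across arrays of one protein sequence run at different concentrations or buffers and across linkers. A negative Z-score can be read as non-binding.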

[2] = target: Fuc(a1-3)[GalNAc(b1-4)]GlcNAc
How it was run: as §1

[3] = target: Fuc(a1-3)[GalNAc(b1-4)]GlcNAc6S
How it was run: as §1

Fuc(a1-4)GlcNAc = target: Fuc(a1-4)GlcNAc
How it was run: as §1

Fuc(b1-3)GlcNAc = target: Fuc(b1-3)GlcNAc
How it was run: as §1

Gal(a1-2)Gal = target: Gal(a1-2)Gal
How it was run: as §1

Gal(a1-3)Gal = target: Gal(a1-3)Gal
How it was run: as §1

Gal(a1-3)Gal(b1-3)GlcNAc = target: Gal(a1-3)Gal(b1-3)GlcNAc
How it was run: as §1

[4] = target: Gal(a1-3)Gal(b1-3)GlcNAc(b1-2)Man
How it was run: as §1

[5] = target: Gal(a1-3)Gal(b1-3)GlcNAc(b1-2)Man(a1-3)[Gal(a1-3)Gal(b1-3)GlcNAc(b1-2)Man(a1-6)]Man(b1-4)GlcNAc(b1-4)GlcNAc
How it was run: as §1

[6] = target: Gal(a1-3)Gal(b1-3)GlcNAc(b1-3)GalNAc
How it was run: as §1

[7] = target: Gal(a1-3)Gal(b1-3)GlcNAc(b1-6)GalNAc
How it was run: as §1

[8] = target: Gal(a1-3)Gal(b1-3)[Fuc(a1-4)]GlcNAc(b1-2)Man(a1-3)[Gal(a1-3)Gal(b1-3)[Fuc(a1-4)]GlcNAc(b1-2)Man(a1-6)]Man(b1-4)GlcNAc(b1-4)GlcNAc
How it was run: as §1

Gal(a1-3)Gal(b1-4)Glc = target: Gal(a1-3)Gal(b1-4)Glc
How it was run: as §1

Gal(a1-3)Gal(b1-4)GlcNAc = target: Gal(a1-3)Gal(b1-4)GlcNAc
How it was run: as §1

[9] = target: Gal(a1-3)Gal(b1-4)GlcNAc(b1-2)Man
How it was run: as §1

[10] = target: Gal(a1-3)Gal(b1-4)GlcNAc(b1-2)Man(a1-3)[Gal(a1-3)Gal(b1-4)GlcNAc(b1-2)Man(a1-6)]Man(b1-4)GlcNAc(b1-4)GlcNAc
How it was run: as §1

[11] = target: Gal(a1-3)Gal(b1-4)GlcNAc(b1-3)GalNAc
How it was run: as §1

[12] = target: Gal(a1-3)Gal(b1-4)GlcNAc(b1-6)GalNAc
How it was run: as §1

[13] = target: Gal(a1-3)Gal(b1-4)[Fuc(a1-3)]GlcNAc
How it was run: as §1

[14] = target: Gal(a1-3)Gal(b1-4)[Fuc(a1-3)]GlcNAc(b1-2)Man(a1-3)[Gal(a1-3)Gal(b1-4)[Fuc(a1-3)]GlcNAc(b1-2)Man(a1-6)]Man(b1-4)GlcNAc(b1-4)GlcNAc
How it was run: as §1

Gal(a1-3)GalNAc = target: Gal(a1-3)GalNAc
How it was run: as §1

[15] = target: Gal(a1-3)[Gal(a1-4)]Gal(b1-4)GlcNAc
How it was run: as §1

[16] = target: Gal(a1-4)Gal(b1-3)GlcNAc(b1-2)Man(a1-3)[Gal(a1-4)Gal(b1-3)GlcNAc(b1-2)Man(a1-6)]Man(b1-4)GlcNAc(b1-4)GlcNAc
How it was run: as §1

Gal(a1-4)Gal(b1-4)Glc = target: Gal(a1-4)Gal(b1-4)Glc
How it was run: as §1

Gal(a1-4)Gal(b1-4)GlcNAc = target: Gal(a1-4)Gal(b1-4)GlcNAc
How it was run: as §1

[17] = target: Gal(a1-4)Gal(b1-4)GlcNAc(b1-2)Man(a1-3)[Gal(a1-4)Gal(b1-4)GlcNAc(b1-2)Man(a1-6)]Man(b1-4)GlcNAc(b1-4)GlcNAc
How it was run: as §1

[18] = target: Gal(a1-4)Gal(b1-4)GlcNAc(b1-3)Gal(b1-4)Glc
How it was run: as §1

Gal(a1-4)GlcNAc = target: Gal(a1-4)GlcNAc
How it was run: as §1

Gal(a1-6)Glc = target: Gal(a1-6)Glc
How it was run: as §1

Gal(b1-2)Gal = target: Gal(b1-2)Gal
How it was run: as §1

Gal(b1-3)Gal = target: Gal(b1-3)Gal
How it was run: as §1

Gal(b1-3)Gal(b1-4)GlcNAc = target: Gal(b1-3)Gal(b1-4)GlcNAc
How it was run: as §1

Gal(b1-3)GalNAc = target: Gal(b1-3)GalNAc
How it was run: as §1

[19] = target: Gal(b1-3)GalNAc(a1-3)[Fuc(a1-2)]Gal(b1-4)Glc
How it was run: as §1

[20] = target: Gal(b1-3)GalNAc(a1-3)[Fuc(a1-2)]Gal(b1-4)GlcNAc
How it was run: as §1

Gal(b1-3)GalNAc(b1-3)Gal = target: Gal(b1-3)GalNAc(b1-3)Gal
How it was run: as §1

[21] = target: Gal(b1-3)GalNAc(b1-3)Gal(a1-4)Gal(b1-4)Glc
How it was run: as §1

[22] = target: Gal(b1-3)GalNAc(b1-4)Gal(b1-4)Glc
How it was run: as §1

[23] = target: Gal(b1-3)GalNAc(b1-4)[Neu5Ac(a2-3)]Gal(b1-4)Glc
How it was run: as §1

Gal(b1-3)GlcNAc = target: Gal(b1-3)GlcNAc
How it was run: as §1

[24] = target: Gal(b1-3)GlcNAc(a1-3)Gal(b1-4)GlcNAc
How it was run: as §1

[25] = target: Gal(b1-3)GlcNAc(a1-6)Gal(b1-4)GlcNAc
How it was run: as §1

Gal(b1-3)GlcNAc(b1-2)Man = target: Gal(b1-3)GlcNAc(b1-2)Man
How it was run: as §1

[26] = target: Gal(b1-3)GlcNAc(b1-2)Man(a1-3)[Gal(b1-3)GlcNAc(b1-2)Man(a1-6)]Man(b1-4)GlcNAc(b1-4)GlcNAc
How it was run: as §1

B1: YghJ (Escherichia coli), E3PJ90 (protein)
chain: MNKKFKYKKSLLAAILSATLLAGCDGGGSGSSSDTPPVDSGTGSLPEVKPDPTPNPEPTPEPTPDPEPTPEPIPDPEPTPEPEPEPVPTKTGYLTLGGSQRVTGATCNGESSDGFTFKPGEDVTCVAGNTTIATFNTQSEAARSLRAVEKVSFSLEDAQELAGSDDKKSNAVSLVTSSNSCPANTEQVCLTFSSVIESKRFDSLYKQIDLAPEEFKKLVNEEVENNAATDKAPSTHTSPVVPVTTPGTKPDLNASFVSANAEQFYQYQPTEIILSEGRLVDSQGYGVAGVNYYTNSGRGVTGENGEFSFSWGEAISFGIDTFELGSVRGNKSTIALTELGDEVRGANIDQLIHRYSTTGQNNTRVVPDDVRKVFAEYPNVINEIINLSLSNGATLGEGEQVVNLPNEFIEQFNTGQAKEIDTAICAKTDGCNEARWFSLTTRNVNDGQIQGVINKLWGVDTNYKSVSKFHVFHDSTNFYGSTGNARGQAVVNISNAAFPILMARNDKNYWLAFGEKRAWDKNELAYITEAPSIVRPENVTRETASFNLPFISLGQVGDGKLMVIGNPHYNSILRCPNGYSWNGGVNKDGQCTLNSDPDDMKNFMENVLRYLSNDRWLPDAKSSMTVGTNLETVYFKKHGQVLGNSAPFAFHKDFTGITVKPMTSYGNLNPDEVPLLILNGFEYVTQWGSDPYSIPLRADTSKPKLTQQDVTDLIAYMNKGGSVLIMENVMSNLKEESASGFVRLLDAAGLSMALNKSVVNNDPQGYPDRVRQRRSTPIWVYERYPAVDGKPPYTIDDTTKEVIWKYQQENKPDDKPKLEVASWQEEVEGKQVTQFAFIDEADHKTPESLAAAKQRILDAFPGLEVCKDSDYHYEVNCLEYRPGTDVPVTGGMYVPQYTQLDLSADTAKAMLQAADLGTNIQRLYQHELYFRTNGRQGERLNSVDLERLYQNMSVWLWNETKYRYEEGKEDELGFKTFTEFLNCYTNNAYVGTQCSAELKKSLIDNKMIYGEESSKAGMMNPSYPLNYMEKPLTRLMLGRSWWDLNIKVDVEKYPGVVNTNGETVTQNINLYSAPTKWFAGNMQSTGLWAPAQQEVSIESKSTVPVTVTVALADDLTGREKHEVSLNRPPRVTKTYDLKANDKVTFKVPYGGLIYIKGDSKEVQSADFTFTGVVKAPFYKDGKWQHDLNSPAPLGELESASFVYTTPKKNLNASNYTGGLEQFANDLDTFASSMNDFYGRDSEDGKHRMFTYKNLPGHKHRFANDVQISIGDAHSGYPVMNSSFSPNSTTLPTTPLNDWLIWHEVGHNAAETPLTVPGATEVANNVLALYMQDRYLGKMNRVADDITVAPEYLEESNGQAWARGGAGDRLLMYAQLKEWAEKNFDIKKWYPDGTPLPEFYSEREGMKGWNLFQLMHRKARGDEVSNDKFGGKNYCAESNGNAADTLMLCASWVAQTDLSEFFKKWNPGANAYQLPGASEMSFEGGVSQSAYNTLASLDLPKPEQGPETINQVTEHKMSAE
[1]
  glycan array binding signal (z-score): 0.764
[2]
  glycan array binding signal (z-score): 0.729
[3]
  glycan array binding signal (z-score): 0.125
Fuc(a1-4)GlcNAc
  glycan array binding signal (z-score): -1.15
Fuc(b1-3)GlcNAc
  glycan array binding signal (z-score): -0.154
Gal(a1-2)Gal
  glycan array binding signal (z-score): 0.209
Gal(a1-3)Gal
  glycan array binding signal (z-score): -0.167
Gal(a1-3)Gal(b1-3)GlcNAc
  glycan array binding signal (z-score): -1.57
[4]
  glycan array binding signal (z-score): -1.15
[5]
  glycan array binding signal (z-score): 1.47
[6]
  glycan array binding signal (z-score): 0.957
[7]
  glycan array binding signal (z-score): 0.282
[8]
  glycan array binding signal (z-score): -0.696
Gal(a1-3)Gal(b1-4)Glc
  glycan array binding signal (z-score): -0.571
Gal(a1-3)Gal(b1-4)GlcNAc
  glycan array binding signal (z-score): -0.469
[9]
  glycan array binding signal (z-score): 0.24
[10]
  glycan array binding signal (z-score): 0.637
[11]
  glycan array binding signal (z-score): -0.448
[12]
  glycan array binding signal (z-score): -0.131
[13]
  glycan array binding signal (z-score): -2.21
[14]
  glycan array binding signal (z-score): 0.736
Gal(a1-3)GalNAc
  glycan array binding signal (z-score): -0.152
[15]
  glycan array binding signal (z-score): -0.439
[16]
  glycan array binding signal (z-score): 1.11
Gal(a1-4)Gal(b1-4)Glc
  glycan array binding signal (z-score): -0.047
Gal(a1-4)Gal(b1-4)GlcNAc
  glycan array binding signal (z-score): -0.664
[17]
  glycan array binding signal (z-score): 0.36
[18]
  glycan array binding signal (z-score): 0.123
Gal(a1-4)GlcNAc
  glycan array binding signal (z-score): -1.26
Gal(a1-6)Glc
  glycan array binding signal (z-score): -0.543
Gal(b1-2)Gal
  glycan array binding signal (z-score): 0.575
Gal(b1-3)Gal
  glycan array binding signal (z-score): 0.106
Gal(b1-3)Gal(b1-4)GlcNAc
  glycan array binding signal (z-score): -0.841
Gal(b1-3)GalNAc
  glycan array binding signal (z-score): -0.482
[19]
  glycan array binding signal (z-score): 2.15
[20]
  glycan array binding signal (z-score): 0.412
Gal(b1-3)GalNAc(b1-3)Gal
  glycan array binding signal (z-score): -0.908
[21]
  glycan array binding signal (z-score): 0.195
[22]
  glycan array binding signal (z-score): -0.121
[23]
  glycan array binding signal (z-score): -0.276
Gal(b1-3)GlcNAc
  glycan array binding signal (z-score): 0.17
[24]
  glycan array binding signal (z-score): -0.404
[25]
  glycan array binding signal (z-score): 0.492
Gal(b1-3)GlcNAc(b1-2)Man
  glycan array binding signal (z-score): -0.517
[26]
  glycan array binding signal (z-score): -0.765
